In US5076973A (Arizona Board of Regents, priority 1988, dated 1991) one finds step yield, isolated yield and cyclisation yield data, which are given here for 3 substances.

Strings that start with PEPTIDE1 are HELM notation: dots part the residues, brackets hold end groups and non-standard residues.

The data set can be described thus: general procedure: solution-phase peptide synthesis; diethyl phosphorocyanidate (DEPC)-triethylamine. The note with it: for step yield: coupling step; for isolated yield: whole synthesis, overall.

As for “N-t-Boc-L-(gln)Thz-(gly)Thz-L-Val-L-Pro-OMe”, the step yield is 93%.
Substance “N-t-Boc-L-Leu-L-(gln)Thz-(gly)Thz-L-Val-L-Pro-OMe” registered a step yield of 86% and an isolated yield of 71%.
Regarding “PEPTIDE1{V.P.L.[glnThz].[glyThz]}$PEPTIDE1,PEPTIDE1,1:R1-5:R2$$$V2.0”, the isolated yield worked out at 41%. For the same substance, for the setting “cyclisation step”, the cyclisation yield is listed as 76%.
